Results reported in paper PMC12224427.
These are yes or no findings as the source states them, for the method shown. For part of these data: Binding seen in cells or lysates may run through a third protein. Some entries that bind do so weakly or less than the wild type. For part of these data: Tags and fused reporters may be left off the sequences shown. Values belong to the binder of their own block, whether it stands above or below them.

Tests used:
[1] = target: T1, Flag-tagged 6-phosphogluconate dehydrogenase (6PGD) (UniProt P52209); test: co-IP; 6PGD Flag pull-down from HCT116, HCT8 and LoVo cells, western blotting of m6A-related proteins
T1 sequence: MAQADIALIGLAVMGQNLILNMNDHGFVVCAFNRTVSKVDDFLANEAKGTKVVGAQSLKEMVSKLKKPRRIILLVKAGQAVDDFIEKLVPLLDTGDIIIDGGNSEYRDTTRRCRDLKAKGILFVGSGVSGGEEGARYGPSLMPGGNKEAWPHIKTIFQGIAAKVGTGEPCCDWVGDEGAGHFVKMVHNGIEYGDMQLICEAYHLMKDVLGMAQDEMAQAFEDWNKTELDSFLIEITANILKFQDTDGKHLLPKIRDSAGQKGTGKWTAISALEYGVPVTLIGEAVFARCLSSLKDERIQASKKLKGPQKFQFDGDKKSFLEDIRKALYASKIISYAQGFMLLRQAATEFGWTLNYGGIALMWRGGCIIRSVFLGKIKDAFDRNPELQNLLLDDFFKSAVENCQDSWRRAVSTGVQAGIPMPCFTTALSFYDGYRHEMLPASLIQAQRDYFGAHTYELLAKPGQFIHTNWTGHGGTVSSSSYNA

[2] = target: Flag-tagged ALKBH5 WT (1-394) (UniProt Q6P6C2); test: co-IP; in vivo Flag pull-down of Flag-ALKBH5 (WT in HCT116 and LoVo; WT and truncation mutants in HCT116, extracts immunoprecipitated with Flag antibody), western blotting for 6PGD
[3] = target: T2, Flag-tagged ALKBH5 truncation mutant T1 (114–274) (UniProt Q6P6C2); test: as above
T2 sequence: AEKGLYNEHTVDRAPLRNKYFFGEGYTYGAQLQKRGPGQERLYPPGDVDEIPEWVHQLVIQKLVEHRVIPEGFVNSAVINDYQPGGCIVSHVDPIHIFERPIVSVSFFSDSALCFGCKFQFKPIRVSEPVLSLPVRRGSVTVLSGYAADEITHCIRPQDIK

[4] = target: ALKBH5, endogenous (human (endogenous in HCT116, HCT8, LoVo)) (UniProt Q6P6C2); test: co-IP; in vivo Co-IP of endogenous 6PGD and endogenous ALKBH5 in HCT116 and LoVo cells
[5] = target: recombinant ALKBH5 (reALKBH5; aa:66–292) (UniProt Q6P6C2); test: co-IP; in vitro Co-IP binding assay with recombinant 6PGD and recombinant ALKBH5; both purified

- binding [1]: no binding
B1: METTL14, endogenous (protein, UniProt Q9HCE5 1-456)
chain: MDSRLQEIRERQKLRRQLLAQQLGAESADSIGAVLNSKDEQREIAETRETCRASYDTSAPNAKRKYLDEGETDEDKMEEYKDELEMQQDEENLPYEEEIYKDSSTFLKGTQSLNPHNDYCQHFVDTGHRPQNFIRDVGLADRFEEYPKLRELIRLKDELIAKSNTPPMYLQADIEAFDIRELTPKFDVILLEPPLEEYYRETGITANEKCWTWDDIMKLEIDEIAAPRSFIFLWCGSGEGLDLGRVCLRKWGYRRCEDICWIKTNKNNPGKTKTLDPKAVFQRTKEHCLMGIKGTVKRSTDGDFIHANVDIDLIITEEPEIGNIEKPVEIFHIIEHFCLGRRRLHLFGRDSTIRPGWLTVGPTLTNSNYNAETYASYFSAPNSYLTGCTEEIERLRPKSPPPKSKSDRGGGAPRGGGRGGTSAGRGRERNRSNFRGERGGFRGGRGGAHRGGFPPR

- binding [2]: binds
- binding [3]: binds
- binding [4]: binds
B2: 6-phosphogluconate dehydrogenase (6PGD), endogenous (enzyme, UniProt P52209 1-483)
chain: MAQADIALIGLAVMGQNLILNMNDHGFVVCAFNRTVSKVDDFLANEAKGTKVVGAQSLKEMVSKLKKPRRIILLVKAGQAVDDFIEKLVPLLDTGDIIIDGGNSEYRDTTRRCRDLKAKGILFVGSGVSGGEEGARYGPSLMPGGNKEAWPHIKTIFQGIAAKVGTGEPCCDWVGDEGAGHFVKMVHNGIEYGDMQLICEAYHLMKDVLGMAQDEMAQAFEDWNKTELDSFLIEITANILKFQDTDGKHLLPKIRDSAGQKGTGKWTAISALEYGVPVTLIGEAVFARCLSSLKDERIQASKKLKGPQKFQFDGDKKSFLEDIRKALYASKIISYAQGFMLLRQAATEFGWTLNYGGIALMWRGGCIIRSVFLGKIKDAFDRNPELQNLLLDDFFKSAVENCQDSWRRAVSTGVQAGIPMPCFTTALSFYDGYRHEMLPASLIQAQRDYFGAHTYELLAKPGQFIHTNWTGHGGTVSSSSYNA

- binding [5]: binds
B3: recombinant 6PGD (re6PGD) (enzyme, UniProt P52209 1-483)
chain: MAQADIALIGLAVMGQNLILNMNDHGFVVCAFNRTVSKVDDFLANEAKGTKVVGAQSLKEMVSKLKKPRRIILLVKAGQAVDDFIEKLVPLLDTGDIIIDGGNSEYRDTTRRCRDLKAKGILFVGSGVSGGEEGARYGPSLMPGGNKEAWPHIKTIFQGIAAKVGTGEPCCDWVGDEGAGHFVKMVHNGIEYGDMQLICEAYHLMKDVLGMAQDEMAQAFEDWNKTELDSFLIEITANILKFQDTDGKHLLPKIRDSAGQKGTGKWTAISALEYGVPVTLIGEAVFARCLSSLKDERIQASKKLKGPQKFQFDGDKKSFLEDIRKALYASKIISYAQGFMLLRQAATEFGWTLNYGGIALMWRGGCIIRSVFLGKIKDAFDRNPELQNLLLDDFFKSAVENCQDSWRRAVSTGVQAGIPMPCFTTALSFYDGYRHEMLPASLIQAQRDYFGAHTYELLAKPGQFIHTNWTGHGGTVSSSSYNA

- binding [5]: binds
B4: catalytically inactive 6PGD (6PGD K76R), for the in vitro binding assay (enzyme, UniProt P52209 1-483)
chain: MAQADIALIGLAVMGQNLILNMNDHGFVVCAFNRTVSKVDDFLANEAKGTKVVGAQSLKEMVSKLKKPRRIILLVRAGQAVDDFIEKLVPLLDTGDIIIDGGNSEYRDTTRRCRDLKAKGILFVGSGVSGGEEGARYGPSLMPGGNKEAWPHIKTIFQGIAAKVGTGEPCCDWVGDEGAGHFVKMVHNGIEYGDMQLICEAYHLMKDVLGMAQDEMAQAFEDWNKTELDSFLIEITANILKFQDTDGKHLLPKIRDSAGQKGTGKWTAISALEYGVPVTLIGEAVFARCLSSLKDERIQASKKLKGPQKFQFDGDKKSFLEDIRKALYASKIISYAQGFMLLRQAATEFGWTLNYGGIALMWRGGCIIRSVFLGKIKDAFDRNPELQNLLLDDFFKSAVENCQDSWRRAVSTGVQAGIPMPCFTTALSFYDGYRHEMLPASLIQAQRDYFGAHTYELLAKPGQFIHTNWTGHGGTVSSSSYNA
